Percent effect of library compounds

Measurements from “University of Dundee, Small-Polar-MMV Screening Library” (2021), ChEMBL document CHEMBL3988442.

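Phenotypic screen: M. tuberculosis growth, glucose 7H9 medium, 3 days; the read-out is not stated. Concentration: 500 µM. Direction is inferred from retests: higher values go with more growth inhibition. Size under these conditions: about 18,000 compounds, about 1,400 of them at 50% or above in at least one test.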

The filed quantity is “Percent Effect” (%). How 0% and 100% were set is not recorded. Most values in the screen are low, and negative values occur. This is an unselected part of the compounds tested.

compound	effect
O=C(NCC(c1ccco1)N1CCCC1)c1cnn[nH]1 (centres unmarked)	-1.618%
Cc1cc(-n2cccc2)ccc1C(=O)N(C)C	35.35%
O=C1CN(Cc2ccccc2)C(=O)CN1	5.3%
c1ccc(CNC2CCNCC2)cc1	5.962%
NCC1(NC(=O)c2n[nH]c3c2CCC3)CCCC1	18.61%
CC(=O)c1ccc(NC(N)=O)cc1Cl	27.09%
CC(=O)NC1CCN(CC(=O)Nc2ccccc2)CC1	6.734%
CCC(C)(C)NC(=O)Cn1ccc(C(F)(F)F)n1	22.76%
COc1ccc2[nH]c(C(=O)NCC3CCCO3)cc2c1 (centres unmarked)	75.75%
O=C1NCC(O)n2c1cc(Br)c2Br (centres unmarked)	13.6%
NCCc1n[nH]c(=O)n1-c1ccc(Cl)cc1	15.82%
CC(C)(C)NC(=O)CCNC(=O)c1ccccc1	43.37%
CCC(O)(CC)C(C)(C)CN	5.849%
O=C1NCCOc2ccc(Br)cc21	21.71%
c1ccc2c(N3CCNCC3)cncc2c1	15.22%
C[C@@H](C#N)NC(=O)OC(C)(C)C	16.23%
CCC(CC)NC(=O)Nc1ccccc1CC(=O)NC	0.751%
O=C(NCC1CCS(=O)(=O)C1)c1cccc2cn[nH]c12 (centres unmarked)	10.86%
Nc1ccc(CNc2ccc(C(F)(F)F)nn2)cn1	69.68%
CC(C)Oc1ccc(S(=O)(=O)N2CCC(N)C2)cc1 (centres unmarked)	81.22%
CN1Cc2cc(-c3csc(N)n3)ccc2NC1=O	59.24%
CC(=O)N1CCN(Cc2cccc(N)n2)CC1	12.88%
O=C(Nc1ccc(Cl)cn1)c1ccncc1	52.05%
FC(F)Oc1ccc(C2CNCCO2)cc1 (centres unmarked)	39.84%
NC(=O)CCN1C(=O)CCC1=O	-11.77%
O=C(Cc1ccc(Cl)cc1Br)NC(CO)CO	20.11%
COc1ccc(NC(C)C(=O)N2CCNC2=O)cc1 (centres unmarked)	17.62%
CN1CCC(Oc2cc(N)ccn2)CC1	9.399%
CC1CCCN(Cn2nccc2-c2cccnc2)C1 (centres unmarked)	12.44%
Cc1ccc(CNC(C)Cn2cncn2)o1 (centres unmarked)	18.5%
COCCn1cnnc1CCNC(=O)c1cnccn1	-2.844%
CNc1ncccc1CN	-1.164%
COc1ccc2c(c1)C(N)CCN2 (centres unmarked)	-0.7744%
CC(=O)NCCN1CCCC1	-0.3892%
Nc1nc(-c2ccncc2Cl)ns1	7.872%
Cc1cc(F)ccc1C(=O)N1C[C@H](C2CC2)[C@@H](N)C1	21.09%
Cc1ccc(CN2CCNCC2CCO)o1 (centres unmarked)	8.62%
OC1CCN(CCn2cccn2)CC1	-17.91%
CN(C)[C@@H]1CN(C(=O)c2nccn2C)CC[C@@H]1CO	9.949%
C[C@@H]1CN(C(=O)c2cc(F)cc(C#N)c2)C[C@]1(C)O	-9.497%
Cn1cc(-c2csc(CCN3CCOC3=O)n2)cn1	15.17%
COC(=O)c1cnc(OC)cn1	-12.9%
CN(CC(C)(C)O)C(=O)CCc1ccsc1	20.54%
Cc1cccc(S(=O)(=O)NC2CCCNC2)c1C#N (centres unmarked)	16.49%
O=S(=O)(NCc1ccncc1)c1c[nH]c2ncccc12	20.7%
O=C(CC1(O)CCCCC1)NCc1ncccc1F	45.88%
Cc1ccc(CCNC(=O)NCc2cnn(C)c2)cn1	-2.192%

3 of the entries, repeated:

compound	effect
CCC(O)(CC)C(C)(C)CN	5.849%
O=C(Nc1ccc(Cl)cn1)c1ccncc1	52.05%
CC(=O)N1CCN(Cc2cccc(N)n2)CC1	12.88%